From article PMC10770396, “Dimerization of the 4Ig isoform of B7-H3 in tumor cells mediates enhanced proliferation and tumorigenic signaling” (Communications Biology, 2024) come the findings set out here.

These are yes or no findings as the source states them, for the method shown. Binding seen in cells or lysates may run through a third protein. Some results given as binding are weak or reduced against the parent protein; the word gives no strength. Sequences can lack the tags named with a protein.

This test addresses T1, 4Ig-B7-H3 split luciferase fusions (4Ig-B7-H3-nLuc and 4Ig-B7-H3-cLuc) (human), Q5ZPR3.
T1 chain: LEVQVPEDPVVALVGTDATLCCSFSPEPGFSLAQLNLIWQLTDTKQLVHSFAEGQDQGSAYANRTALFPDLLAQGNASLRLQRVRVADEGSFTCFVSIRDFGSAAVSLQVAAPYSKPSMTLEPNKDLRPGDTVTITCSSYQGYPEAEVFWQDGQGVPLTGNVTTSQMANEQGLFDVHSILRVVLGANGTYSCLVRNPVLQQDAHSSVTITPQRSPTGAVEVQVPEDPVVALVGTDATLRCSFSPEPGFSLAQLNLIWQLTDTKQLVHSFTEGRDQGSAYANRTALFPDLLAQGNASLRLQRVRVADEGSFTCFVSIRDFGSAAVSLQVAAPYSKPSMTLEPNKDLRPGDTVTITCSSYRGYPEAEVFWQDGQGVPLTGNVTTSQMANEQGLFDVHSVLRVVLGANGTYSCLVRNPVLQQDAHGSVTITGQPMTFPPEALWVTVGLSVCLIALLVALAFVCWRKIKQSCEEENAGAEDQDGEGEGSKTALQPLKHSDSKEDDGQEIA
Nature of the test: split reporter; ReBiL 2.0 split luciferase complementation in live U2OS cells, doxycycline-induced expression (3-48 h), D-luciferin, bioluminescence imaging (IVIS). As to conditions: remark: other sources report otherwise.

B1: 4Ig-B7-H3 split luciferase fusions (4Ig-B7-H3-nLuc and 4Ig-B7-H3-cLuc), Q5ZPR3 29-534 (protein)
chain: LEVQVPEDPVVALVGTDATLCCSFSPEPGFSLAQLNLIWQLTDTKQLVHSFAEGQDQGSAYANRTALFPDLLAQGNASLRLQRVRVADEGSFTCFVSIRDFGSAAVSLQVAAPYSKPSMTLEPNKDLRPGDTVTITCSSYQGYPEAEVFWQDGQGVPLTGNVTTSQMANEQGLFDVHSILRVVLGANGTYSCLVRNPVLQQDAHSSVTITPQRSPTGAVEVQVPEDPVVALVGTDATLRCSFSPEPGFSLAQLNLIWQLTDTKQLVHSFTEGRDQGSAYANRTALFPDLLAQGNASLRLQRVRVADEGSFTCFVSIRDFGSAAVSLQVAAPYSKPSMTLEPNKDLRPGDTVTITCSSYRGYPEAEVFWQDGQGVPLTGNVTTSQMANEQGLFDVHSVLRVVLGANGTYSCLVRNPVLQQDAHGSVTITGQPMTFPPEALWVTVGLSVCLIALLVALAFVCWRKIKQSCEEENAGAEDQDGEGEGSKTALQPLKHSDSKEDDGQEIA
B1: the binding entry is “binds”.
